The source of these data is publication PMC11850942.

The chains behind the UniProt entries cited, without tags or fusion partners.
UniProt Q04206: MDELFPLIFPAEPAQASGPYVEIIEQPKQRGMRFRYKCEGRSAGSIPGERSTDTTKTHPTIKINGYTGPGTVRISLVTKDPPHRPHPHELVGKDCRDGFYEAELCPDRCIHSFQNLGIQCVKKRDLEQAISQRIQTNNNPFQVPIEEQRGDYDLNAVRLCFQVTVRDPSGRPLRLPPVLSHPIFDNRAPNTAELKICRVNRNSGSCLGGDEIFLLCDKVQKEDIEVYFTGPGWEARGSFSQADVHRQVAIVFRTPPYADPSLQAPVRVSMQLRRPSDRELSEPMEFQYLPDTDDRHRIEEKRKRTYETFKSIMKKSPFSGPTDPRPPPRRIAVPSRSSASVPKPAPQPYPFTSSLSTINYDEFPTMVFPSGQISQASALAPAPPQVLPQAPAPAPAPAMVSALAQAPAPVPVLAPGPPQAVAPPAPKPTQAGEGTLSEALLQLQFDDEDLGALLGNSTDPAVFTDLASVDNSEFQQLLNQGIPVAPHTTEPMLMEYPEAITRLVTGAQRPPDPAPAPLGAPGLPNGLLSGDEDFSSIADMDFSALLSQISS
UniProt P05412: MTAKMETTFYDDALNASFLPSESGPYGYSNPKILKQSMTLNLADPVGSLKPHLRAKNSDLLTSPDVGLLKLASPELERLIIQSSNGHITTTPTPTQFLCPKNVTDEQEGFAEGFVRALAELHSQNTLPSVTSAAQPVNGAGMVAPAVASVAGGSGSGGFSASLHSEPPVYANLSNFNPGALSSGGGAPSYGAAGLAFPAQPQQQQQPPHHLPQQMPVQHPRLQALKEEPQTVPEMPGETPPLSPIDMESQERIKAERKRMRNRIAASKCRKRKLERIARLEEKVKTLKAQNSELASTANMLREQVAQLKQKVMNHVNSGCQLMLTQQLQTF
UniProt Q92830: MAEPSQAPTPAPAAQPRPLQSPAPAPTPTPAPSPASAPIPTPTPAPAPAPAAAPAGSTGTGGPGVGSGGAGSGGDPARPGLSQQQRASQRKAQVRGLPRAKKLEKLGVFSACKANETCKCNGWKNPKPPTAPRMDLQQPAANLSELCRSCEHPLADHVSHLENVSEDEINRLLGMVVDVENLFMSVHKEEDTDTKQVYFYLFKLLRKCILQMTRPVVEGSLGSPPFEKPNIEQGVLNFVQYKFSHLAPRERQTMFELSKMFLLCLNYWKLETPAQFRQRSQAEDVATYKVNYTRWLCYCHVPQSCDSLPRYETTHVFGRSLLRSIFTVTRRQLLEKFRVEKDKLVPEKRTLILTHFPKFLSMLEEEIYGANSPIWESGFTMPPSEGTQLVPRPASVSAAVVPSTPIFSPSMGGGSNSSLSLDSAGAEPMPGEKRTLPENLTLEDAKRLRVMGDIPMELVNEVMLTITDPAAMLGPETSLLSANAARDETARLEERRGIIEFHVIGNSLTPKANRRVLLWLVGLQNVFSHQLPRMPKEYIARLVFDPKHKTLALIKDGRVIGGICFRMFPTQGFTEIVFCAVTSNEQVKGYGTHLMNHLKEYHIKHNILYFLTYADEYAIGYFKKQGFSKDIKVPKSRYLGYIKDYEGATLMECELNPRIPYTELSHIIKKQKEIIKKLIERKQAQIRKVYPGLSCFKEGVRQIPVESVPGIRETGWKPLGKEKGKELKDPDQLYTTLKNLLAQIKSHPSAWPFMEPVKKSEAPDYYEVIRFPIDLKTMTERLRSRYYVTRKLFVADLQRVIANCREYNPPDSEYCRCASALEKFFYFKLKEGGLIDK
UniProt Q96RN5: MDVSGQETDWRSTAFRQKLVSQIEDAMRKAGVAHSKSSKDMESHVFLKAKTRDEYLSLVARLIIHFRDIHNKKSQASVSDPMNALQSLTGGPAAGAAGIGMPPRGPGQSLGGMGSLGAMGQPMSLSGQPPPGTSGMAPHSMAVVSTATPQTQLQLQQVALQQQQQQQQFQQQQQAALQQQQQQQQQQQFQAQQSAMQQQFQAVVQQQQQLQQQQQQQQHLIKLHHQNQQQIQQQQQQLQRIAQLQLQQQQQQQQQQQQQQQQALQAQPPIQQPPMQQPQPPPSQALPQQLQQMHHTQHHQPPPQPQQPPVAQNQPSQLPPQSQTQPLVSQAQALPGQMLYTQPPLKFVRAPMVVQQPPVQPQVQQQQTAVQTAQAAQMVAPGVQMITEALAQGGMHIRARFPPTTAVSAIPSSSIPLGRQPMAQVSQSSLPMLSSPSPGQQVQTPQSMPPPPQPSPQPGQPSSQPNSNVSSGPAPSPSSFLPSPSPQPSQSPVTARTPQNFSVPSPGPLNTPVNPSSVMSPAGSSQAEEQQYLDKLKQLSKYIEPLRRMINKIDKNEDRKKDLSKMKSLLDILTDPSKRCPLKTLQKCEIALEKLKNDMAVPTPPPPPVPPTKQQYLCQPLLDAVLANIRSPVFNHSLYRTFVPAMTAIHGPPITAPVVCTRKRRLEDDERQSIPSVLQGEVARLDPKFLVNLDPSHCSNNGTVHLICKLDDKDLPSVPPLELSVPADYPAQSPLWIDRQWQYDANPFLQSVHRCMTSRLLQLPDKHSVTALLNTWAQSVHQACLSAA
UniProt P49715: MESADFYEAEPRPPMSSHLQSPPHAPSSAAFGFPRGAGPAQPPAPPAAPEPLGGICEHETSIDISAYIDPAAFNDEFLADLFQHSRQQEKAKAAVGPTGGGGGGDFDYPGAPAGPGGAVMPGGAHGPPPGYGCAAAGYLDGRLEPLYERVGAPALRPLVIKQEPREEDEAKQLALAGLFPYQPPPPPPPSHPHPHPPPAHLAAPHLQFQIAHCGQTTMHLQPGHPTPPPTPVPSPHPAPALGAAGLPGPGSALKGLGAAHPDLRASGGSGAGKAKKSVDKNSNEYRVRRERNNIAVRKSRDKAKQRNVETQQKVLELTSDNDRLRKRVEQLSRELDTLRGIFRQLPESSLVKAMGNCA
UniProt Q92785: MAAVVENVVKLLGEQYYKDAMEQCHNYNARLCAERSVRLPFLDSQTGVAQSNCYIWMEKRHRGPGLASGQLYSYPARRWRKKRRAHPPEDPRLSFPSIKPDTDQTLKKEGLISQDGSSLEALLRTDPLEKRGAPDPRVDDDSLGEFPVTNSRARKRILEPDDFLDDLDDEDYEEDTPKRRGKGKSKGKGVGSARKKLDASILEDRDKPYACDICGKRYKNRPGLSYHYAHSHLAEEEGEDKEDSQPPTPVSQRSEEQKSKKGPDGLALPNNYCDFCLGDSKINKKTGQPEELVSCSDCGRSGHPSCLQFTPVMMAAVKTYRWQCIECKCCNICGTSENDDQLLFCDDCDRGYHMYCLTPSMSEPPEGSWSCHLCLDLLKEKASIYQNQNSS
UniProt P51617: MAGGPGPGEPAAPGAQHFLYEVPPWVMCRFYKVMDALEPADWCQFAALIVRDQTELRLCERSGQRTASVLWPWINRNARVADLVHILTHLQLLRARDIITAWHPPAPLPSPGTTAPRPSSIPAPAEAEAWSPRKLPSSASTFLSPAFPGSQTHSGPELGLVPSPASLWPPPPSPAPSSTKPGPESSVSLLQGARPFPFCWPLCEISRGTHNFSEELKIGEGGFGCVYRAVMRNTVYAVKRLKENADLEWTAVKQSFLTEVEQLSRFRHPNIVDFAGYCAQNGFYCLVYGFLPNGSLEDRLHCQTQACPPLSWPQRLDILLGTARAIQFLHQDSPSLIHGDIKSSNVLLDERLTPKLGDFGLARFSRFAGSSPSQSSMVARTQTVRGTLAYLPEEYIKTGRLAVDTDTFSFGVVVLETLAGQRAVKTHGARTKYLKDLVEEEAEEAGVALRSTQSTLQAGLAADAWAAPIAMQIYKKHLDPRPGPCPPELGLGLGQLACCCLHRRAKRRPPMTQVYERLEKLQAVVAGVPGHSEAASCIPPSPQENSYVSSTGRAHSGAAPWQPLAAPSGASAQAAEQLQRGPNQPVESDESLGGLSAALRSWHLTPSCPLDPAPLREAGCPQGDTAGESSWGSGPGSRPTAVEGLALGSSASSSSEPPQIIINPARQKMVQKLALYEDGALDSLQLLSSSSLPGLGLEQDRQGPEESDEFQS
UniProt Q92782: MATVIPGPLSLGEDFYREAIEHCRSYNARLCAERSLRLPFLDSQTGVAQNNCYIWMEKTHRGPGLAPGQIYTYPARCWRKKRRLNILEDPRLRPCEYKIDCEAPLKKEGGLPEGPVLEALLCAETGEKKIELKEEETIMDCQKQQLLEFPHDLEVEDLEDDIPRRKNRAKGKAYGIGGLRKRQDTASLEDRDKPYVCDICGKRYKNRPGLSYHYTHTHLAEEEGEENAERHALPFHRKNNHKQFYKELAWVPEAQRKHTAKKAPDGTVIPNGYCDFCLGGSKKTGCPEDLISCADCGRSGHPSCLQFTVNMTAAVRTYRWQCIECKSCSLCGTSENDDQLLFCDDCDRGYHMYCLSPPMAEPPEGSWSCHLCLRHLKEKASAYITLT
UniProt P19532: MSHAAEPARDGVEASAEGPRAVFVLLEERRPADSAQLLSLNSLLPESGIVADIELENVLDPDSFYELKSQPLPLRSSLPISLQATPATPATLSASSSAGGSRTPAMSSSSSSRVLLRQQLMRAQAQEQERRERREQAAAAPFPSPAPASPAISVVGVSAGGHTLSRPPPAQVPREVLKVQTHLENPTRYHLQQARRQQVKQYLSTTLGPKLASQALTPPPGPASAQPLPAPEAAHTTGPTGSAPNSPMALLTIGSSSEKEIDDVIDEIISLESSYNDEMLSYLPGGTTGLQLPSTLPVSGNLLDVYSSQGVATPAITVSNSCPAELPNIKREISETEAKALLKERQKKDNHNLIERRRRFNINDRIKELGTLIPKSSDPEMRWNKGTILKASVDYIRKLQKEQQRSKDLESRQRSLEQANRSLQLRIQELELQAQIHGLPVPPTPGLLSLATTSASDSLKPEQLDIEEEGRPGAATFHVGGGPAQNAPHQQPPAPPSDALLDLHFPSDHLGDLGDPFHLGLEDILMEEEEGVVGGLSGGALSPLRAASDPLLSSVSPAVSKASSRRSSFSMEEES
UniProt O75030: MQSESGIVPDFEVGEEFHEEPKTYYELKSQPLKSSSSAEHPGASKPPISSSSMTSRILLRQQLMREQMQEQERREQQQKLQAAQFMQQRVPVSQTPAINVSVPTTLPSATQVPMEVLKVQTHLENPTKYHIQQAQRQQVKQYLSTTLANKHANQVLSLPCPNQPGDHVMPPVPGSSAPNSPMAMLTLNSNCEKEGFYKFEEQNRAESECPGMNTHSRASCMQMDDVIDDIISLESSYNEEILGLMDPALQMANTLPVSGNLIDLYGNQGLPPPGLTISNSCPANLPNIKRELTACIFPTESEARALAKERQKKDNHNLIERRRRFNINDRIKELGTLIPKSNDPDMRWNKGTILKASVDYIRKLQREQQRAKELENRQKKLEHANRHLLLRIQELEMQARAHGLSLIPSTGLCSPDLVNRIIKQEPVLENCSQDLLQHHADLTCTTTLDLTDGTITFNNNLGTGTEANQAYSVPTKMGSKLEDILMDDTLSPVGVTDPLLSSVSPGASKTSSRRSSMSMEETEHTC

No constants are given. Whether binding was seen depends on the method and setting. In cells and extracts the contact can be indirect. These calls come from enrichment with a bait or labelling near it, and not all partners need be listed.

B1: FOSL1 (protein, UniProt P15407 1-271)
chain: MFRDFGEPGPSSGNGGGYGGPAQPPAAAQAAQQKFHLVPSINTMSGSQELQWMVQPHFLGPSSYPRPLTYPQYSPPQPRPGVIRALGPPPGVRRRPCEQISPEEEERRRVRRERNKLAAAKCRNRRKELTDFLQAETDKLEDEKSGLQREIEELQKQKERLELVLEAHRPICKIPEGAKEGDTGSTSGTSSPPAPCRPVPCISLSPGPVLEPEALHTPTLMTTPSLTPFTPSLVFTYPSTPEPCASAHRKSSSSSGDPSSDPLGSPTLLAL
B2: FOSL2 (protein, UniProt P15408 1-326)
chain: MYQDYPGNFDTSSRGSSGSPAHAESYSSGGGGQQKFRVDMPGSGSAFIPTINAITTSQDLQWMVQPTVITSMSNPYPRSHPYSPLPGLASVPGHMALPRPGVIKTIGTTVGRRRRDEQLSPEEEEKRRIRRERNKLAAAKCRNRRRELTEKLQAETEELEEEKSGLQKEIAELQKEKEKLEFMLVAHGPVCKISPEERRSPPAPGLQPMRSGGGSVGAVVVKQEPLEEDSPSSSSAGLDKAQRSVIKPISIAGGFYGEEPLHTPIVVTSTPAVTPGTSNLVFTYPSVLEQESPASPSESCSKAHRRSSSSGDQSSDSLNSPTLLAL
B3: IRF1 (protein, UniProt P10914 1-325)
chain: MPITRMRMRPWLEMQINSNQIPGLIWINKEEMIFQIPWKHAAKHGWDINKDACLFRSWAIHTGRYKAGEKEPDPKTWKANFRCAMNSLPDIEEVKDQSRNKGSSAVRVYRMLPPLTKNQRKERKSKSSRDAKSKAKRKSCGDSSPDTFSDGLSSSTLPDDHSSYTVPGYMQDLEVEQALTPALSPCAVSSTLPDWHIPVEVVPDSTSDLYNFQVSPMPSTSEATTDEDEEGKLPEDIMKLLEQSEWQPTNVDGKGYLLNEPGVQPTSVYGDFSCKEEPEIDSPGGDIGLSLQRVFTDLKNMDATWLDSLLTPVRLPSIQAIPCAP
B4: CEBPD (protein, UniProt P49716 1-269)
chain: MSAALFSLDGPARGAPWPAEPAPFYEPGRAGKPGRGAEPGALGEPGAAAPAMYDDESAIDFSAYIDSMAAVPTLELCHDELFADLFNSNHKAGGAGPLELLPGGPARPLGPGPAAPRLLKREPDWGDGDAPGSLLPAQVAACAQTVVSLAAAGQPTPPTSPEPPRSSPRQTPAPGPAREKSAGKRGPDRGSPEYRQRRERNNIAVRKSRDKAKRRNQEMQQKLVELSAENEKLHQRVEQLTRDLAGLRQFFKQLPSPPFLPAAGTADCR
B5: ZMIZ2 (protein, UniProt Q8NF64 1-920)
chain: MNSMNPMKPALPPAPHGDGSFAYESVPWQQSATQPAGSLSVVTTVWGVGNATQSQVLGNPMGPAGSPSGSSMMPGVAGGSSALTSPQCLGQQAFAEGGANKGYVQQGVYSRGGYPGAPGFTTGYAGGPGGLGLPSHAARPSTDFTQAAAAAAVAAAAATATATATATVAALQEKQSQELSQYGAMGAGQSFNSQFLQHGGPRGPSVPAGMNPTGIGGVMGPSGLSPLAMNPTRAAGMTPLYAGQRLPQHGYPGPPQAQPLPRQGVKRTYSEVYPGQQYLQGGQYAPSTAQFAPSPGQPPAPSPSYPGHRLPLQQGMTQSLSVPGPTGLHYKPTEQFNGQGASFNGGSVSYSQPGLSGPTRSIPGYPSSPLPGNPTPPMTPSSSVPYMSPNQEVKSPFLPDLKPNLNSLHSSPSGSGPCDELRLTFPVRDGVVLEPFRLQHNLAVSNHVFQLRDSVYKTLIMRPDLELQFKCYHHEDRQMNTNWPASVQVSVNATPLTIERGDNKTSHKPLYLKHVCQPGRNTIQITVTACCCSHLFVLQLVHRPSVRSVLQGLLKKRLLPAEHCITKIKRNFSSGTIPGTPGPNGEDGVEQTAIKVSLKCPITFRRIQLPARGHDCRHIQCFDLESYLQLNCERGTWRCPVCNKTALLEGLEVDQYMLGILIYIQNSDYEEITIDPTCSWKPVPVKPDMHIKEEPDGPALKRCRTVSPAHVLMPSVMEMIAALGPGAAPFAPLQPPSVPAPSDYPGQGSSFLGPGTFPESFPPTTPSTPTLAEFTPGPPPISYQSDIPSSLLTSEKSTACLPSQMAPAGHLDPTHNPGTPGLHTSNLGAPPGPQLHHSNPPPASRQSLGQASLGPTGELAFSPATGVMGPPSMSGAGEAPEPALDLLPELTNPDELLSYLGPPDLPTNNNDDLLSLFENN
B6: Zinc finger protein GLI-similar 2 (GLIS2) (protein, UniProt Q9BZE0 1-524)
chain: MHSLDEPLDLKLSITKLRAAREKRERTLGVVRPRALHRELGLVDDSPTPGSPGSPPSGFLLNSKFPEKVEGRFSAAPLVDLSLSPPSGLDSPNGSSSLSPERQGNGDLPPVPSASDFQPLRYLDGVPSSFQFFLPLGSGGALHLPASSFLTPPKDKCLSPDLPLPKQLVCRWAKCNQLFELLQDLVDHVNDYHVKPEKDAGYCCHWEGCARHGRGFNARYKMLIHIRTHTNEKPHRCPTCSKSFSRLENLKIHNRSHTGEKPYVCPYEGCNKRYSNSSDRFKHTRTHYVDKPYYCKMPGCHKRYTDPSSLRKHIKAHGHFVSHEQQELLQLRPPPKPPLPAPDGGPYVSGAQIIIPNPAALFGGPGLPGLPLPLAPGPLDLSALACGNGGGSGGGGGMGPGLPGPVLPLNLAKNPLLPSPFGAGGLGLPVVSLLAGAAGGKAEGEKGRGSVPTRALGMEGHKTPLERTESSCSRPSPDGLPLLPGTVLDLSTGVNSAASSPEALAPGWVVIPPGSVLLKPAVVN
B7: S100A9 (protein, UniProt P06702 1-114)
chain: MTCKMSQLERNIETIINTFHQYSVKLGHPDTLNQGEFKELVRKDLQNFLKKENKNEKVIEHIMEDLDTNADKQLSFEEFIMLMARLTWASHEKMHEGDEGPGHHHKPGLGEGTP
B8: zinc finger and BTB domain containing 5 (ZBTB5) (protein, UniProt O15062 1-677)
chain: MDFPGHFEQIFQQLNYQRLHGQLCDCVIVVGNRHFKAHRSVLAACSTHFRALFSVAEGDQTMNMIQLDSEVVTAEAFAALIDMMYTSTLMLGESNVMDVLLAASHLHLNSVVKACKHYLTTRTLPMSPPSERVQEQSARMQRSFMLQQLGLSIVSSALNSSQNGEEQPAPMSSSMRSNLDQRTPFPMRRLHKRKQSAEERARQRLRPSIDESAISDVTPENGPSGVHSREEFFSPDSLKIVDNPKADGMTDNQEDSAIMFDQSFGTQEDAQVPSQSDNSAGNMAQLSMASRATQVETSFDQEAAPEKSSFQCENPEVGLGEKEHMRVVVKSEPLSSPEPQDEVSDVTSQAEGSESVEVEGVVVSAEKIDLSPESSDRSFSDPQSSTDRVGDIHILEVTNNLEHKSTFSISNFLNKSRGNNFTANQNNDDNIPNTTSDCRLESEAPYLLSPEAGPAGGPSSAPGSHVENPFSEPADSHFVRPMQEVMGLPCVQTSGYQGGEQFGMDFSRSGLGLHSSFSRVMIGSPRGGASNFPYYRRIAPKMPVVTSVRSSQIPENSTSSQLMMNGATSSFENGHPSQPGPPQLTRASADVLSKCKKALSEHNVLVVEGARKYACKICCKTFLTLTDCKKHIRVHTGEKPYACLKCGKRFSQSSHLYKHSKTTCLRWQSSNLPSTLL
B9: S100A8 (protein, UniProt P05109 1-93)
chain: MLTELEKALNSIIDVYHKYSLIKGNFHAVYRDDLKKLLETECPQYIRKKGADVWFKELDINTDGAVNFQEFLILVIKMGVAAHKKSHEESHKE
B10: GLIS1 (protein, UniProt Q8NBF1 1-620)
chain: MAEARTSLSAHCRGPLATGLHPDLDLPGRSLATPAPSCYLLGSEPSSGLGLQPETHLPEGSLKRCCVLGLPPTSPASSSPCASSDVTSIIRSSQTSLVTCVNGLRSPPLTGDLGGPSKRARPGPASTDSHEGSLQLEACRKASFLKQEPADEFSELFGPHQQGLPPPYPLSQLPPGPSLGGLGLGLAGRVVAGRQACRWVDCCAAYEQQEELVRHIEKSHIDQRKGEDFTCFWAGCVRRYKPFNARYKLLIHMRVHSGEKPNKCMFEGCSKAFSRLENLKIHLRSHTGEKPYLCQHPGCQKAFSNSSDRAKHQRTHLDTKPYACQIPGCSKRYTDPSSLRKHVKAHSAKEQQVRKKLHAGPDTEADVLTECLVLQQLHTSTQLAASDGKGGCGLGQELLPGVYPGSITPHNGLASGLLPPAHDVPSRHHPLDATTSSHHHLSPLPMAESTRDGLGPGLLSPIVSPLKGLGPPPLPPSSQSHSPGGQPFPTLPSKPSYPPFQSPPPPPLPSPQGYQGSFHSIQSCFPYGDCYRMAEPAAGGDGLVGETHGFNPLRPNGYHSLSTPLPATGYEALAEASCPTALPQQPSEDVVSSGPEDCGFFPNGAFDHCLGHIPSIYTDT

The target of one experiment is p65(wt)-HA-miniTurbo (human) (UniProt Q04206).
Consider c-JUN (from UniProt P05412 1-331), for which the binding entry is reported as “binds”.

For the molecule “c-JUN phosphorylated at S63 (from UniProt P05412 1-331)”, the binding entry is “binds”.

Regarding B1, the binding result was “binds”. On the same count and under the same terms, the entry for B2 is “binds”.

A further experiment shares this target. The source holds these as a separate data set.
For the molecule KAT2A (from UniProt Q92830 1-837), the binding result is recorded as “binds”.

As to MED15 (from UniProt Q96RN5 1-788), the binding entry was “binds”.

With CEBPA (from UniProt P49715 1-358), the binding entry is recorded as “binds”. On to DPF2 (from UniProt Q92785 1-391), for which the binding entry is recorded as “binds”. The same measure, in the same setting: the entry for IRAK1 (from UniProt P51617 1-712) is “binds”.

Turning to DPF1 (from UniProt Q92782 1-387), the binding result is on record as “binds”. On the same count and under the same terms, in the case of B3 it was “binds”; in that of B4, “binds”.

The next experiment shares this target. The source holds these as a separate data set.
Consider B5, for which the binding result was “binds”.

For the next experiment the target is unchanged. The source holds these as a separate data set.
On to “transcription factor E3 (TFE3) (from UniProt P19532 1-575)”, for which the binding result is given as “binds”.

Regarding B6, the binding entry is “binds”. As to B7, the binding result is listed as “binds”. On the same count and under the same terms, the entry for B8 is “binds”. With B9, the binding entry is on record as “binds”.

Another experiment has the same target. This is another data set of the same source.
As to “microphthalmia-associated transcription factor (MITF) (from UniProt O75030 1-526)”, the binding result is on record as “binds”. Same read-out and setting: in the case of B10 it was “binds”.
